Results on one molecule are retold here after publication PMC9266683.

By UniProt entry, the sequences of proteins in these tests, tags left out. Where a name states a change or a piece, a line headed by the entry shows the natural chain unless it says otherwise. Chains listed by the source or under a name are the forms on record and can include a tag or linker. Residues count along the entry.
UniProt O48686: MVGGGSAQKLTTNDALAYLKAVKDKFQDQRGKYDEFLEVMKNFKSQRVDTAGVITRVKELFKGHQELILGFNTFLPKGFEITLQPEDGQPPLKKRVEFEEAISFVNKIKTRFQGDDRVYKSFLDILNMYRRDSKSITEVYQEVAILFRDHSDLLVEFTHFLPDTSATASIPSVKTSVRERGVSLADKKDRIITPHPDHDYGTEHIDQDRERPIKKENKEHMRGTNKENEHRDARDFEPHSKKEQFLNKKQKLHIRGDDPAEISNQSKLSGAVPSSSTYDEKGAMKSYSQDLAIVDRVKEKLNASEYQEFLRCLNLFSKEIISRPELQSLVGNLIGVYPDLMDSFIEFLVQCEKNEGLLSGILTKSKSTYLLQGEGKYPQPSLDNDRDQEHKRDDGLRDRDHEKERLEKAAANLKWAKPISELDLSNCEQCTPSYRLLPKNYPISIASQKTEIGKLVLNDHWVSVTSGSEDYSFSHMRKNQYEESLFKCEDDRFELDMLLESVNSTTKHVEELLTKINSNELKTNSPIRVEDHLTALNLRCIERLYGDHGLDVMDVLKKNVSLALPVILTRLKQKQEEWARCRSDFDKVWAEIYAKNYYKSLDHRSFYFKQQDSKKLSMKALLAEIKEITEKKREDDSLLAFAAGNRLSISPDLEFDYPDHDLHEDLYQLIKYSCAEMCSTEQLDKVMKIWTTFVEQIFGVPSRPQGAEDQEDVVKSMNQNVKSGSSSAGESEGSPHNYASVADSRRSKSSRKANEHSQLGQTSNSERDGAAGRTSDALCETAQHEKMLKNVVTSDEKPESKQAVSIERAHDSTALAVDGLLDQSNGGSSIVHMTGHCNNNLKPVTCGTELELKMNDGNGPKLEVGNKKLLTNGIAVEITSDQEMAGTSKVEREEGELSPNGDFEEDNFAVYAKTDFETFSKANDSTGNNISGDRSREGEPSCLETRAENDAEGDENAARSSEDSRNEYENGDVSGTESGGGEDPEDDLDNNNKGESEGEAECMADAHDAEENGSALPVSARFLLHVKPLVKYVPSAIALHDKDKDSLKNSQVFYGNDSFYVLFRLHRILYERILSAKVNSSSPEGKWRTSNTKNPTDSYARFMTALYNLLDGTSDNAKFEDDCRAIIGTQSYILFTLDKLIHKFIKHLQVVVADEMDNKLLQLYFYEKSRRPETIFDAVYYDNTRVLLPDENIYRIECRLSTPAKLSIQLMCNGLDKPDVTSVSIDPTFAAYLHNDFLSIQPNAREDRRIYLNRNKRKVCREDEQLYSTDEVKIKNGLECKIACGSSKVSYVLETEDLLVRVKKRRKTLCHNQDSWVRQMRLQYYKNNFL
SNL3-ΔC (aa 1–850), fused to the GAL4 binding domain: residues 1-850 of O48686
SNL3-HID (aa 391–850), fused to the GAL4 binding domain: residues 391-850 of O48686
SNL3-C terminal (aa 851–1326), fused to the GAL4 binding domain: residues 851-1326 of O48686

What all share (assay): two-hybrid; Matchmaker GAL4 two-hybrid system 3, yeast AH109; VAL1 constructs in pGADT7 (AD), SNL constructs in pGBKT7 (BD); growth on medium lacking Trp, Leu, His and Ade, 3-5 d at 30 °C
For test [1], the target named is SNL3-C terminal (aa 851–1326), fused to the GAL4 binding domain (Arabidopsis thaliana) (UniProt O48686).
For test [2], the target named is SNL3-HID (aa 391–850), fused to the GAL4 binding domain (Arabidopsis thaliana) (UniProt O48686).
Test [3] addresses SNL3-ΔC (aa 1–850), fused to the GAL4 binding domain (Arabidopsis thaliana) (UniProt O48686).

Results are given in words; binding and its absence hold for the method and conditions named. Some entries that bind do so weakly or less than the wild type. Sequences can lack the tags named with a protein.

B1: VAL1 (VIVIPAROUS1/ABSCISIC ACID …3-LIKE1), full length, fused to the GAL4 activating domain (protein, UniProt Q8W4L5 1-790)
chain: MFEVKMGSKMCMNASCGTTSTVEWKKGWPLRSGLLADLCYRCGSAYESSLFCEQFHKDQSGWRECYLCSKRLHCGCIASKVTIELMDYGGVGCSTCACCHQLNLNTRGENPGVFSRLPMKTLADRQHVNGESGGRNEGDLFSQPLVMGGDKREEFMPHRGFGKLMSPESTTTGHRLDAAGEMHESSPLQPSLNMGLAVNPFSPSFATEAVEGMKHISPSQSNMVHCSASNILQKPSRPAISTPPVASKSAQARIGRPPVEGRGRGHLLPRYWPKYTDKEVQQISGNLNLNIVPLFEKTLSASDAGRIGRLVLPKACAEAYFPPISQSEGIPLKIQDVRGREWTFQFRYWPNNNSRMYVLEGVTPCIQSMMLQAGDTVTFSRVDPGGKLIMGSRKAANAGDMQGCGLTNGTSTEDTSSSGVTENPPSINGSSCISLIPKELNGMPENLNSETNGGRIGDDPTRVKEKKRTRTIGAKNKRLLLHSEESMELRLTWEEAQDLLRPSPSVKPTIVVIEEQEIEEYDEPPVFGKRTIVTTKPSGEQERWATCDDCSKWRRLPVDALLSFKWTCIDNVWDVSRCSCSAPEESLKELENVLKVGREHKKRRTGESQAAKSQQEPCGLDALASAAVLGDTIGEPEVATTTRHPRHRAGCSCIVCIQPPSGKGRHKPTCGCTVCSTVKRRFKTLMMRRKKKQLERDVTAAEDKKKKDMELAESDKSKEEKEVNTARIDLNSDPYNKEDVEAVAVEKEESRKRAIGQCSGVVAQDASDVLGVTELEGEGKNVREEPRVSS
B1: the binding entry in test [1] is on record as “no binding”; in test [2] it was “no binding”; in test [3], “binds”.
